Results as given in patent publication US20210147525A1 (University of California, published 2021).

B1: 3-D3 (antibody, V domains shown)
VH: EVQLLESGGGLVQPGGSLRLSCAASGFTFSNYAMSWVRQAPGKGLEWVSTIYESGGYTYYADSVKGRFTISRDNSKNTLYLQMNSLRAEDTAVYYCARVESYGYGEYITYNYYGFDVWGQGTLVTVSS
VL: EIVLTQSPGTLSLSPGERATLSCRASQSVATGYLAWYQQKPGQAPRLLIYGASSRATGIPDRFSGSGSGTDFTLTISRLEPEDFAVYYCQQYESSPPFTFGQGTKVEIK
B2: 1-A5 (antibody, V domains shown)
VH: QVQLVESGGGVVQPGRSLRLSCAASGYAFSSYGMHWVRQAPGKGLEWVAVISHSGSNKYYANSVKGRFTISRDNSKNTLYLQMNSLRAEDTAVYYCARGLAGWEVYPFDVWGQGTLVTVSS
VL: QSTQPPSVSGAPGQRVTISCTGSSSNIGAGFDVHWYQQLPGTAPKLLIYDNTNRPSGVPDRFSGSKSGTSASLAITGLQAEDEADYYCQSYDYSLRVWVFGGGTKLTVL
B3: 1-H10 (antibody, V domains shown)
VH: EVQLLESGGGLVQPGGSLRLSCAASGFTFSNYAMSWVRQAPGKGLEWVSTISGGGTYYADSVKGRFTISRDNSKNTLYLQMNSLRAEDTAVYYCARSRYWYTKLISYTYGMDVWGQGTLVTVSS
VL: QSVLTQPPSVSGAPGQRVTISCTGSSSNIGATYDVHWYQQLPGTAPKLLIYVNNNRPSGVPDRFSGSKSGTSASLAITGLQAEDEADYYCQSYDSSLRAWVFGGGTKLTVL
B4: 10-F12 (antibody, V domains shown)
VH: EVQLLESGGGLVQPGGSLRLSCAASGFTFSNYAMSWVRQAPGKGLEWVSAIKGSGGGTYYADSVKGRFTISRDNSKNTLYLQMNSLRAEDTAVYYCARGGYLWLDPWGQGTLVTVSS
VL: EIVMTQSPATLSVSPGERATLSCRASQSISSNLAWYQQKPGQAPRLLIYDASTRATGIPARFSGSGSGTEFTLTISSLQSEDFAVYYCQQYYNWPLTFGQGTKVEIK
B5: 2-F7 (antibody, V domains shown)
VH: EVQLLESGGGLVQPGGSLRLSCAASGFTFSDYAMSWVRQAPGKGLEWVSSIYTSGGRTYYADSVKGRFTISRDNSKNTLYLQMNSLRAEDTAVYYCARGYRYFDHWGQGTLVTVSS
VL: B4 VL with I29V, S30R, S31N, D50G, N93T, L96R
B6: 2-B5 (antibody, V domains shown)
VH: QVQLVESGGGVVQPGRSLRLSCAASGFIFSDYDMHWVRQAPGKGLEWVAVISHSGSNKYYADSVKGRFTISRDNSKNTLYLQMNSLRAEDTAVYYCARDRSVYLYYGYHYYEGFDVWGQGTLVTVSS
VL: B4 VL with I29V, S30Y, S31N, D50G, Y92N, N93D, W94L
B7: 11-B6 (antibody, V domains shown)
VH: EVQLLESGGGLVQPGGSLRLSCAASGFTFSRYAMSWVRQAPGKGLEWVSIISGTGGNTYYADSVKGRFTISRDNSKNTLYLQMNSLRAEDTAVYYCARIDTFAYYYSLYRAFDLWGQGTLVTVSS
VL: B4 VL with I29V, S30G, S31G, Y92N, N93D
B8: 10-E6 (antibody, V domains shown)
VH: EVQLLESGGGLVQPGGSLRLSCAASGFTFSSYAMSWVRQAPGKGLEWVSAIYGSGGDTYYADSVKGRFTISRDNSKNTLYLQMNSLRAEDTAVYYCARTEYDGYFDVWGQGTLVTVSS
VL: DIQMTQSPSSLSASVGDRVTITCRASQDIYNYLNWYQQKPGKAPKLLIYGASSLQSGVPSRFSGSGSGTDFTLTISSLQPEDFATYYCQQSDGFPPTFGQGTKVEIK
B9: 11-H8 (antibody, V domains shown)
VH: EVQLLESGGGLVQPGGSLRLSCAASGFTFSNYAMSWVRQAPGKGLEWVSSIYGSGHRTYYADSVKGRFTISRDNSKNTLYLQMNSLRAEDTAVYYCARVASSAEYAFDHWGQGTLVTVSS
VL: B8 VL with D28S, Y30S, P40S, G50A, D92Y, G93T, F94V, P96L
B10: 3-C8 (antibody, V domains shown)
VH: EVQLLESGGGLVQPGGSLRLSCAASGFTFSDYAMSWVRQAPGKGLEWVSAIYGSGSYTYYADSVKGRFTISRDNSKNTLYLQMNSLRAEDTAVYYCARTAYSYPYVYFDFWGQGTLVTVSS
VL: B8 VL with D28T, Y30T, N31S, G50A, D92Y, G93T, F94Y, P96L
B11: 2-B4 (antibody, V domains shown)
VH: QVQLVESGGGVVQPGRSLRLSCAASGFTFSNYGMHWVRQAPGKGLEWVAVISYHGRNEYYADSVKGRFTISRDNSKNTLYLQMNSLRAEDTAVYYCARGDDQDAFDPWGQGTLVTVSS
VL: B8 VL with D28S, Y30S, G50A, D92F, G93S, F94A, P96Y
B12: 3-C9 (antibody, V domains shown)
VH: EVQLLESGGGLVQPGGSLRLSCAASGFTFGNYAMSWVRQAPGKGLEWVSVISGGGTNTYYADSVKGRFTISRDNSKNTLYLQMNSLRAEDTAVYYCARSDSYYGVYDGYYYGMDVWGQGTLVTVSS
VL: B8 VL with D28T, Y30S, N31R, Y36H, G50A, S91T, D92Y, G93S, F94T, P96W
B13: 2-H9 (antibody, V domains shown)
VH: B9 VH with N31T, H56G, R57K, V99T, A100D, S101Y, A103L, E104Y, A106Q, H109Y
VL: B8 VL with D28S, Y30S, N31R, G50A, F83L, D92Y, G93S, F94Y, P96V
B14: 11-D8 (antibody, V domains shown)
VH: EVQLLESGGGLVQPGGSLRLSCAASGFTFSDYAMSWVRQAPGKGLEWVSSISEGGGSTYYADSVKGRFTISRDNSKNTLYLQMNSLRAEDTAVYYCARTKRYFAGGSYYWMDVWGQGTLVTVSS
VL: B8 VL with D28R, Y30S, N31S, G50A, T72A, D92Y, G93S, F94Y, P96I
B15: 10-E7 (antibody, V domains shown)
VH: EVQLLESGGGLVQPGGSLRLSCAASGFTFTDYAMSWVRQAPGKGLEWVSVIYGSGGRTYYADSVKGRFTISRDNSKNTLYLQMNSLRAEDTAVYYCARVEDSHYSFDVWGQGTLVTVSS
VL: B8 VL with D28S, Y30S, G50A, D92Y, G93T, F94V, P96W
B16: 1-A1 (antibody, V domains shown)
VH: B8 VH with S30T, Y52S, G53A, S54G, D57Y, T99Y, E100D, D102N, G103S, V107S
VL: B2 VL with F31Y, D50G, T52N, Y93R, R96S, V97G
B17: 3-C6 (antibody, V domains shown)
VH: EVQLLESGGGLVQPGGSLRLSCAASGFTFSTYAMSWVRQAPGKGLEWVSTIYGSGGRTYYADSVKGRFTISRDNSKNTLYLQMNSLRAEDTAVYYCARTDHYSYYVMDYWGQGTLVTVSS
VL: B8 VL with D28S, Y30S, N31K, G50S, F83C, D92Y, G93S, P96L
B18: 3-C11 (antibody, V domains shown)
VH: EVQLLESGGGLVQPGGSLRLSCAASGFTFSSYAMSWVRQAPGKGLEWVSTIYASGATTYYADSVKGRFTISRDNSKNTLYLQMNSLRAEDTAVYYCARLKLYHAAFDIWGQGTLVTVSS
VL: B8 VL with Y30S, N31S, G50T, D92Y, G93S, F94Y, P96L
B19: 2-H2 (antibody, V domains shown)
VH: B11 VH with N31D, H54E, R56S, D100S, D101E, Q102G, D103S, A104G, P107V
VL: B8 VL with D28R, Y30S, G50A, D92Y, G93S, F94P, P96Y
B20: 11-D11 (antibody, V domains shown)
VH: EVQLLESGGGLVQPGGSLRLSCAASGFTFSTYAMSWVRQAPGKGLEWVSSISGSGGKTYYADSVKGRFTISRDNSKNTLYLQMNSLRAEDTAVYYCARDIYGITYDGYTYYDGMDVWGQGTLVTVSS
VL: B8 VL with D28S, Y36H, G50A, G93S, F94P, P96W
B21: 2-F8 (antibody, V domains shown)
VH: B9 VH with S30P, S50T, S54R, H56E, A100S, S101V, S102V, A103W, E104S, H109Y
VL: B8 VL with Y30S, N31T, G50A, D92Y, G93S, F94Y, P96L
B22: 3-C4 (antibody, V domains shown)
VH: EVQLLESGGGLVQPGGSLRLSCAASGFTFSSYAMSWVRQAPGKGLEWVSTIYGGGSYTYYADSVKGRFTISRDNSKNTLYLQMNSLRAEDTAVYYCARAEVDDYWYLYMDVWGQGTLVTVSS
VL: B8 VL with Y30G, G50A, D92Y, G93T, P96L
B23: 11-G9 (antibody, V domains shown)
VH: EVQLLESGGGLVQPGGSLRLSCAASGFTFPDYAMSWVRQAPGKGLEWVSTIYAGGGRTYYADSVKGRFTISRDNSKNTLYLQMNSLRAEDTAVYYCARGLTRHYGYSFDHWGQGTLVTVSS
VL: B8 VL with D28T, Y30S, N31S, G50S, D92Y, G93T, P96L
B24: 11-G5 (antibody, V domains shown)
VH: EVQLLESGGGLVQPGGSLRLSCAASGFTFSNYAMSWVRQAPGKGLEWVSTISGSGANTYYADSVKGRFTISRDNSKNTLYLQMNSLRAEDTAVYYCARHHDIAPSWIYYFDYWGQGTLVTVSS
VL: EIVLTQSPGTLSLSPGERATLSCRARQSVPSNYLAWYQQKPGQAPRLLIYGASSRATGIPDRFSGSGSGTDFTLTISRLEPEDFAVYYCQQYYSSPLTFGQGTKVEIK

biological target: human PLXDC1 protein, biotinylated (bait of the antibody library screen) (human); assay: antibody library screen on biotinylated PLXDC1 with activating compound

binding, binds:
B1
B2
B3
B4
B5
B6
B7
B8
B9
B10
B11
B12
B13
B14
B15
B16
B17
B18
B19
B20
B21
B22
B23
B24

Substitutions are numbered along the chain they refer to. No constants are given. Whether binding was seen depends on the method and setting. Binding calls can cover weak binding; strength is not graded here.
